Results: article PMC7819943, “Rice protein-binding microarrays: a tool to detect cis-acting elements near promoter regions in rice”
Some of the results follow.

Each sequence was assayed against T1, OsSMF1 (Oryza sativa, UniProt Q6ZLB0 1-436) (assay: protein-binding microarray (RPBM); PBS, 2% BSA, 51.3 ng/ul salmon testes DNA, 50 uM zinc acetate, 200 nM TF, 25 C, 1 h; high values mean tight binding). Conditions: protein: recombinant; tags: N-terminal polyhistidine and DsRed monomer fusion (pET32a); chain copies: 2; label: CyDye5-dUTP incorporated in the synthesized complementary strand; 3' TTTTT single-stranded linker to array surface; dsDNA, one strand shown.
T1 sequence: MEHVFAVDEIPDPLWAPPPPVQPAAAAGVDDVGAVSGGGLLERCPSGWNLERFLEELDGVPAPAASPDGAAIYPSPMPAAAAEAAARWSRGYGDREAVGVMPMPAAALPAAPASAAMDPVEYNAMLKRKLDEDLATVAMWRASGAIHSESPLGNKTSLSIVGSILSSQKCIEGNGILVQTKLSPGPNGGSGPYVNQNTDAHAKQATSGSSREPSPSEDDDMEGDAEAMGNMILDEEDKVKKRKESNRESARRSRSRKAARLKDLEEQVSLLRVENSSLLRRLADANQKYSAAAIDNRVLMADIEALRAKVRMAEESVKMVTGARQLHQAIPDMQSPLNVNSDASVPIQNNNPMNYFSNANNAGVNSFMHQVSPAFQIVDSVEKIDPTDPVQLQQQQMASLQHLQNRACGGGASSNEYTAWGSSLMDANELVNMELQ
Method in brief: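 Binding signal here means per-feature fluorescence intensity in arbitrary units. The values were read on an Axon 4000B scanner after a custom Agilent array, double-stranded by primer extension with Cy5-dUTP, was incubated with 200 nM protein at 25 °C for 1 h in PBS with 2% BSA, salmon testes DNA and 50 µM zinc acetate, then washed. The proteins were transcription factors with an N-terminal polyhistidine tag and DsRed, expressed in E. coli BL21-CodonPlus and purified on Ni–NTA.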

Point of comparison: “CCTTCCGGGCAGCGCTTGCTGACGAGACGGCGGCGGCAGGCGGAGTCACCTAGTGCAG”, binding signal 5980 fluorescence intensity (a.u.). Against it:
- TTCAAGATCCGATATCAAGTGACGTGGTCGGCGCGATCTGCGGAGTCACCTAGTGCAG — higher, 8530 fluorescence intensity (a.u.)
- GTTCAGATTTGTTATACTAGAATGTGTCACGCCAGTTTTACGGAGTCACCTAGTGCAG — lower, 4450 fluorescence intensity (a.u.)
- AAAATTCCTAAAACTACTTGCTACTATTCTCTCTCCAACTCGGAGTCACCTAGTGCAG — lower, 3280 fluorescence intensity (a.u.)
- AGAGTTGTGGGTGTCCAATGCCACGTAATAAAAGTCCAAACGGAGTCACCTAGTGCAG — higher, 9380 fluorescence intensity (a.u.)
- GGAATAACAATAGGCTTGATGTACCTGGAATTTAGCAAATCGGAGTCACCTAGTGCAG — higher, 28000 fluorescence intensity (a.u.)
- CTAAAGCGTTATCCCACACGTGGATCCATCCCCACCGTCCCGGAGTCACCTAGTGCAG — higher, 7200 fluorescence intensity (a.u.)
- ATAAATTTGTACCCTCCAGCTCACACTCAATGTCACCTGGCGGAGTCACCTAGTGCAG — lower, 3480 fluorescence intensity (a.u.)
- GCGTTCCTTCAGGAGCATGACTCATAGACGGAACGGTGACCGGAGTCACCTAGTGCAG — lower, 4700 fluorescence intensity (a.u.)
- CCCGACATGTAGATCGGGTCGTGCCGACCCAATTGACCTTCGGAGTCACCTAGTGCAG — higher, 18200 fluorescence intensity (a.u.)
- CCACCCGCGCCGCCACCGACACCTCCCCTACGCCCTAGCTCGGAGTCACCTAGTGCAG — higher, 17100 fluorescence intensity (a.u.)
- AAACCAATTAGTCAGACAATATATACCAGCACAAAATACACGGAGTCACCTAGTGCAG — lower, 3220 fluorescence intensity (a.u.)
- AGTGTGTTTCTGCAACAGTAGTGTTCTGTTCATGGGCAACCGGAGTCACCTAGTGCAG — higher, 21400 fluorescence intensity (a.u.)
- ATGACATTTGGCCATGTCATGTTTTAATTAGGTCGAGAAGCGGAGTCACCTAGTGCAG — lower, 3560 fluorescence intensity (a.u.)
- GACCTGCCCGCCGCCGCCGACGTCCCCTCGGGCGGATCTGCGGAGTCACCTAGTGCAG — lower, 3380 fluorescence intensity (a.u.)
- GGGCTCCCAGTATAGCTTAGGTTGATTTAATTATGGTTAACGGAGTCACCTAGTGCAG — higher, 49500 fluorescence intensity (a.u.)
- CCGTTTCCAACCCGACTCCGTGGCGGTCTCTGAGCCGTCCCGGAGTCACCTAGTGCAG — lower, 3640 fluorescence intensity (a.u.)
- TTAAGGCCCATTTGCTAGGCTGACGCATGGGACCCATATTCGGAGTCACCTAGTGCAG — lower, 3880 fluorescence intensity (a.u.)
- GGAAAGTGTTTGTGGCCCACGTGCGGCTTGTTATTATTGGCGGAGTCACCTAGTGCAG — lower, 3450 fluorescence intensity (a.u.)
- GTCTTTTCCGGTAGTGCGTGAGTAGCAAGATTGCATGACGCGGAGTCACCTAGTGCAG — lower, 3250 fluorescence intensity (a.u.)
- GATAGCGAACCCTTTGGTCTTCGTCATTAGGCTTCGCTCACGGAGTCACCTAGTGCAG — lower, 3710 fluorescence intensity (a.u.)
- CCCAAACAAACCGCTTCGTCGACTCGTCGCCGTCGTCGTCCGGAGTCACCTAGTGCAG — lower, 3770 fluorescence intensity (a.u.)
- CTATAGCAATACTTGCGGTGCATGCTAGTGAGTAGTGACGCGGAGTCACCTAGTGCAG — higher, 10600 fluorescence intensity (a.u.)
- GAGGAGTGGGAGGAAAATGAGTGGTGGGGAAAGGATAGGGCGGAGTCACCTAGTGCAG — lower, 4150 fluorescence intensity (a.u.)
- TTCCATGGCTAATTGTTCACTGTCATCAAATTGGCATTCACGGAGTCACCTAGTGCAG — lower, 5320 fluorescence intensity (a.u.)
- ATTAATCAAGCAGCATCGAGATGTTGCGAGAGATCGGAATCGGAGTCACCTAGTGCAG — higher, 37500 fluorescence intensity (a.u.)
- GGTGTACCCCAAGCAGGAACGCACTGCTAGCAGTTGGTAGCGGAGTCACCTAGTGCAG — higher, 36100 fluorescence intensity (a.u.)
- GAGTCAAACATTTAGCTGACGCTATCTTTGACCACGCCGCCGGAGTCACCTAGTGCAG — lower, 4420 fluorescence intensity (a.u.)
- CCAATGCATGCATGCACAATTGTGCGCCCCGGTCCTGCAACGGAGTCACCTAGTGCAG — lower, 4280 fluorescence intensity (a.u.)
- TACGCCTCCGCTGTCACAAGCGTATTACTATCTATTACGCCGGAGTCACCTAGTGCAG — lower, 3420 fluorescence intensity (a.u.)
- TGGTATGAATGGATAATTTGTTTCTGTCTTATGTGTTGCTCGGAGTCACCTAGTGCAG — lower, 3150 fluorescence intensity (a.u.)
- ACTACCACATGATCCCAGGTCATTTTCCGTTTTCGTGTCACGGAGTCACCTAGTGCAG — lower, 3270 fluorescence intensity (a.u.)
- CCGTCATCTCCGTCATCTCCGTCGTCTGCCGCAGTCACGGCGGAGTCACCTAGTGCAG — lower, 4020 fluorescence intensity (a.u.)
- GGACGGCCGCGATCTCGCGGGGACCGCCGCGTGTCCCGTGCGGAGTCACCTAGTGCAG — lower, 3500 fluorescence intensity (a.u.)
- TGCACCACGTTAGATCAATTTTACTTACGTGTATTGTTTTCGGAGTCACCTAGTGCAG — higher, 6610 fluorescence intensity (a.u.)
- GCGGGGACGACCACGGCCTGCAGCGACCACGTCGCCTCCACGGAGTCACCTAGTGCAG — lower, 3520 fluorescence intensity (a.u.)
- ACAGCTAGGCATTGCAAGGTATACGTACACGTACCAACTGCGGAGTCACCTAGTGCAG — lower, 3540 fluorescence intensity (a.u.)
- TACCATATTGCTTTCGTCAGCGACGAAGGTATAGTTGTGCCGGAGTCACCTAGTGCAG — higher, 6730 fluorescence intensity (a.u.)
- GCCATCGGTATCTCAATGACATGTAAATGACATGTGGATCCGGAGTCACCTAGTGCAG — lower, 3740 fluorescence intensity (a.u.)
- TGCTACATTCCCAATCTATCCCATGCGCGTTGCCACGCATCGGAGTCACCTAGTGCAG — lower, 3730 fluorescence intensity (a.u.)
- CCCATTAGCATTTCCGGTTTGTATGTGCGTGTTCCCCTGTCGGAGTCACCTAGTGCAG — lower, 3770 fluorescence intensity (a.u.)
- GGTAGAATACGCGCGAATCAGCGCTTATGTGTACTAGTTTCGGAGTCACCTAGTGCAG — lower, 4020 fluorescence intensity (a.u.)
